Reference: the supplement of paper PMC10735217
Counter-ions that a name gives are not always drawn. This is one part of the list. Single values are uncertain here, since repeats match poorly.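 In a drug-repurposing library screen, luminescence reads luciferase driven by eight TEAD-binding elements, stably integrated into human kidney-derived cells. Compounds scoring over five robust Z scores above the plate mean are called hits.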

Tested on: HEK293A TEAD-LUC reporter
Experiment: TEAD-luciferase reporter activity (YAP activation), robust Z score vs plate; higher = stronger YAP/TEAD activation
Details: 24 h

SMILES | TEAD-luciferase reporter activity (compound concentration: 200 nM) | TEAD-luciferase reporter activity (compound concentration: 2 uM) | TEAD-luciferase reporter activity (compound concentration: 10 uM)
O=C(Nc1cccc(C(F)(F)F)c1)c1cc(Br)cc(Br)c1O | inactive: -0.0209 | inactive: -1.99 | inactive: -1.21
COc1cc(Cc2cnc(N)nc2N)cc(OC)c1N(C)C | inactive: -0.0646 | inactive: -0.66 | inactive: 0.52
Cc1cc2c(CCc3sc(-c4ccc(C(F)(F)F)cc4)nc3C(C)C)noc2cc1OCC(=O)O [Fonadelpar] | inactive: -0.334 | inactive: -0.582 | inactive: -1.29
CC#Cc1cncc(-c2ccc3c(c2)[C@@]2(N=C(C)C(N)=N2)[C@]2(CC[C@H](OC)CC2)C3)c1 [Lanabecestat] | inactive: 0.704 | inactive: -1.21 | inactive: 2.91
C[C@@H]1O[C@@H](OC[C@H]2O[C@@H](Oc3cc4c(O)cc(O)cc4[o+]c3-c3ccc(O)c(O)c3)[C@H](O)[C@@H](O)[C@@H]2O)[C@H](O)[C@H](O)[C@H]1O | inactive: 1.12 | inactive: -0.53 | inactive: 2.22
O=C(O)Cc1csc(NC(=O)N(C2CCCCC2)C2CCCCC2)n1 | inactive: -0.242 | inactive: -1.29 | inactive: -0.366
Cc1ccc(C)c(OCCCC(C)(C)C(=O)O)c1 | inactive: 2.38 |  | inactive: -0.705
Cc1ccc(C)c(OCCCC(C)(C)C(=O)O)c1 [gemfibrozil] |  | inactive: -1.14 | 
O=c1n(CC2CO2)c(=O)n(CC2CO2)n1CC1CO1 (centres undefined) [Anaxirone] | inactive: -1.5 | inactive: 0.879 | inactive: -0.208
O=C(OC[C@H]1O[C@H](O[C@H]2O[C@H](COC(=O)C3CCCCC3)[C@@H](O)[C@H](O)[C@H]2O)[C@H](O)[C@@H](O)[C@@H]1O)C1CCCCC1 | inactive: -0.0694 | inactive: -0.57 | inactive: -0.137
O=C(NCC(O)CO)c1c(I)c(C(=O)NCC(O)CO)c(I)c(N(CCO)C(=O)CO)c1I (centres undefined) [ioversol] | inactive: 0.84 | inactive: 0.534 | active: 6.82
CCOc1ccc(-c2c(Cl)ncn2-c2ccc(S(N)(=O)=O)cc2)cc1 | inactive: -1.08 | inactive: -0.401 | inactive: 0.32
COCCc1ccc(OCC(O)C(C)(C)N)cc1 (centres undefined) | inactive: -1.55 | inactive: -0.949 | inactive: 0.049
CCN(CC)CCOCC(O)c1ccc2sccc2c1 (centres undefined) | inactive: -0.845 | inactive: -0.573 | inactive: -0.348
Cc1ccc(NC(=O)[C@H]2CCCN(C(=O)c3c(C)cccc3F)[C@H]2c2ccc(NC3CCCC3)cc2)cc1C(F)(F)F | inactive: 0.293 | inactive: 1.1 | inactive: -0.946
N=C(N)NC(=O)c1cnccn1 [Pyrazinoylguanidine] | inactive: 0.136 | inactive: -1.95 | inactive: 0.841
CC1(C)Oc2ccc(C#N)cc2[C@@H](OC2=NNC(=O)C3CC23)[C@@H]1O (some centres undefined) | inactive: -0.148 | inactive: 0.228 | inactive: 0.445
CCOc1ncc(C)c2c1[C@@H](c1ccc(C#N)cc1OC)C(C(N)=O)=C(C)N2 [Finere] | inactive: -0.683 | inactive: -0.373 | inactive: -0.134
CP(=O)(O)C(C(=O)N/C=C/c1ccc(F)c(F)c1)c1csc2ccc(Cl)cc12 (centres undefined) | inactive: -2.51 | inactive: 0.721 | inactive: -1.31
Cc1ccc(S(=O)(=O)N2CCCC(C(=O)N3CCC(N4CCCC4=O)CC3)C2)cc1 (centres undefined) | inactive: 2.98 |  | active: 20
CCCn1c(=O)c(CCCOC(=O)NC)nc2ccccc21 [Bamaquimast] | inactive: -1.13 | inactive: -0.702 | inactive: 1.19
CN(c1ccc(/C=C/C[C@H](NC(=O)c2c(Cl)cccc2Cl)C(=O)O)cc1)c1ncccn1 | inactive: -0.355 | inactive: -1.34 | inactive: 0.446
CC(C)(C)NC(=O)N[C@H](C(=O)N1C[C@H]2[C@@H]([C@H]1C(=O)NC(CC1CCC1)C(=O)C(N)=O)C2(C)C)C(C)(C)C (some centres undefined) [Boceprevir] | inactive: -1.65 | inactive: 0.709 | inactive: -0.426
CN(c1ccc(/C=C/C[C@H](NC(=O)C2CCCCC2)C(=O)O)cc1)c1ncccn1 | inactive: 0.276 | inactive: 0.426 | inactive: -0.998
CCCOc1ccc(C(=O)OCCN(CC)CC)cc1N [proparacaine HCl] |  | inactive: -1.08 | 
CCCOc1ccc(C(=O)OCCN(CC)CC)cc1N [Proxymetacaine499-67-2] | active: 6.14 |  | inactive: 0.668
CC(C)CN(C[C@@H](O)[C@H](Cc1ccccc1)NC(=O)O[C@H]1CO[C@H]2OCC[C@H]21)S(=O)(=O)c1ccc2nc(NC3CCN(C4CCCC4)CC3)sc2c1 | inactive: -0.885 | inactive: -0.677 | inactive: -0.44

SMILES | TEAD-luciferase reporter activity (compound concentration: 200 nM) | TEAD-luciferase reporter activity (compound concentration: 2 uM) | TEAD-luciferase reporter activity (compound concentration: 10 uM)
O=S(=O)(c1ccccc1)c1c(N2CCNCC2)nn2c3c(cnc12)CNCC3 | inactive: -0.154 | inactive: -1.48 | inactive: 1.13
Cc1nc(NC/C=C\COc2cccc(CN3CCCCC3)c2)[nH]c(=O)c1C | inactive: -0.839 | inactive: -1.05 | inactive: 0.399
Cc1c(-c2ccccc2)[n+](/N=N/[n+]2c(-c3ccccc3)c(C)n3ccccc32)c2ccccn12 [fazadinium bromide] | inactive: -1.28 | inactive: 1.16 | inactive: -0.418
COc1c(N2CCC(N)C(C)(C)C2)c(F)cc2c(=O)c(C(=O)O)cn(C3CC3)c12 (centres undefined) | inactive: -1.56 | inactive: -1.07 | inactive: -1.01
Cc1c(C)c2c(c(C)c1O)CCC(C)(C)O2 | inactive: 0.676 | inactive: -1.25 | inactive: -0.48
CC1=CC(=O)C2=C(C)CC[C@@H]3[C@H](OC(=O)[C@H]3C)[C@@H]12 [Oligvon] | inactive: 2.16 | inactive: -1.59 | inactive: 0.636
CC(=O)N[C@H](CSSC[C@H](N)C(=O)O)C(=O)N[C@H](C)C(=O)N[C@H](CCCNC(=N)N)C(=O)N[C@H](CCCNC(=N)N)C(=O)N[C@H](CCCNC(=N)N)C(=O)N[C@H](C)C(=O)N[C@H](CCCNC(=N)N)C(N)=O | inactive: 2.94 | inactive: -0.531 | inactive: 1.64
COC(=O)c1cc(O)nc(O)n1 | inactive: 4.46 | inactive: 0.0805 | inactive: 1.52
CSCCC(NC(=O)C(CC(C)C)NC(=O)CNC(=O)C(Cc1ccccc1)NC(=O)C(N)Cc1ccccc1)C(N)=O (centres undefined) | inactive: -1.14 | inactive: -0.0156 | inactive: 3.19
CC1CN(c2cc3c(cc2F)c(=O)c(C(=O)O)cn3-c2ccc(F)cc2F)CCN1 (centres undefined) [temafloxacin] | inactive: -0.992 | inactive: -0.504 | inactive: 3.91
CCOC(=O)Cc1cc(Cl)c(Oc2ccc(C(=O)NC(C)(C)C)cc2NS(=O)(=O)c2ccccc2OC)cc1F | inactive: -0.697 | inactive: -0.375 | inactive: -0.51
CC(C(=O)OCCOCCN1CCN(C(c2ccccc2)c2ccc(Cl)cc2)CC1)c1cccc(C(=O)c2ccccc2)c1 (centres undefined) [fenclozine] | inactive: -1.11 | inactive: -0.397 | inactive: 0.591
COc1cccc(CN2C[Si](C)(C)O[Si](C)(C)C2)c1 | inactive: -1.38 | inactive: -1.04 | inactive: -1.04
Cc1c(-c2ccccc2)oc2ccc(OCCCCCCN3CCC(O)CC3)cc2c1=O | inactive: 2.6 | inactive: 0.757 | inactive: -0.0103
OC1(c2cccs2)CCC(CCN2CCN(c3ccccn3)CC2)CC1 (centres undefined) | inactive: -0.443 | inactive: -0.907 | inactive: -0.0429
CCCCCCCCOC(=O)C1=C(C)NC(C)=C(C(=O)NC2CC2)C1c1ccccc1[N+](=O)[O-] (centres undefined) | inactive: -1.17 | inactive: 0.193 | inactive: -0.668
c1ccc(N2CCCNCC2)cc1 | inactive: -1.12 | inactive: -1.95 | inactive: -0.16
CC(C)=CCC/C(C)=C/CC/C(C)=C/CC/C(C)=C/CC1=C(C)C(=O)c2ccccc2C1=O [menatetre] | inactive: -1.48 | inactive: -0.583 | inactive: 1.2
CN1CCN(c2ccc(C(=O)NCc3cnc(C#N)nc3NCC(C)(C)C)cc2)CC1 [Dutacatib] | inactive: -2.1 | inactive: -0.483 | inactive: 1.77
C[C@]12CC[C@@H]3c4ccc(OS(N)(=O)=O)cc4CC[C@H]3[C@@H]1CCC2=O | inactive: 0.691 | inactive: 1.72 | inactive: 3.06
Cc1cc(Cl)ccc1S(=O)(=O)NC[C@H]1C2CCC(CC2)[C@@H]1/C=C\CCCC(=O)O | inactive: 0.147 | inactive: 1.72 | inactive: 2.48
CCCCCCCCCCCCCCOc1ccc(C(=O)OCC(F)(F)F)o1 | inactive: -1.99 |  | inactive: 2.08
CCCCCCCCCCCCCCOc1ccc(C(=O)OCC(F)(F)F)o1 [once thought to be DRM-01] |  | inactive: -0.34 | 
CSc1ccc(C(=O)/C=C/c2cc(C)c(OC(C)(C)C(=O)O)c(C)c2)cc1 | inactive: 0.99 | inactive: 0.685 | inactive: 0.864
CCCCCCCCN[C@H](C)[C@@H](O)c1ccc(SC(C)C)cc1 [suloctidil] | inactive: -0.663 | inactive: 3.54 | inactive: 0.775
FC(F)(F)c1ccc(Nc2nc(N3CCCCC3)nc3c2CCN(c2ncccc2C(F)(F)F)CC3)cc1 | inactive: -0.727 | inactive: 0.673 | inactive: 0.921

Rewritten with tabs: part of the list above
SMILES	TEAD-luciferase reporter activity (compound concentration: 200 nM)	TEAD-luciferase reporter activity (compound concentration: 2 uM)	TEAD-luciferase reporter activity (compound concentration: 10 uM)
CC(C)(C)NC(=O)N[C@H](C(=O)N1C[C@H]2[C@@H]([C@H]1C(=O)NC(CC1CCC1)C(=O)C(N)=O)C2(C)C)C(C)(C)C (some centres undefined) [Boceprevir]	inactive: -1.65	inactive: 0.709	inactive: -0.426
COc1c(N2CCC(N)C(C)(C)C2)c(F)cc2c(=O)c(C(=O)O)cn(C3CC3)c12 (centres undefined)	inactive: -1.56	inactive: -1.07	inactive: -1.01
